The assay deals with oxotremorine. In words: Hypothermic tests with oxotremorine: body temperature change. In kind it is in vivo, mice. The conditions noted are these: ip, 3 mg/kg, 0.5 h. The source says:
Hypothermic tests with oxotermorine: [1-(4-pyrrolidino-2-butynyl)-2-pyrrolidinone].

As for `CN1[C@@H]2CC[C@H]1C[C@@H](OC(=O)C(CO)c1ccccc1)C2` (stereo partly shown) [Atropine], the “Body Temperature °F. Change From Vehicle Control After 15 Minutes” value is “+0.6 °F”, the “Body Temperature °F. Change From Vehicle Control After 30 Minutes” value was “- 0.6 °F”, the “Body Temperature °F. Change From Vehicle Control After 60 Minutes” value is on record as “- 0.7 °F” and the “Body Temperature °F. Change From Vehicle Control After 90 Minutes” value was “- 0.2 °F”.

The record behind these values is patent US4250094A, “1-(Aminoalkyl) substituted-6-phenyl-4H-s-triazolo[4,3-a][1,4]benzodiazepines” (priority 1979, dated 1981).
